Literature values in patent publication US20030220374A1, “Compositions and methods of treatment involving peroxisome proliferator-activated receptor-gamma agonists and cyclooxygenase-2 selective inhibitors” (Pharmacia Corporation, priority 2002, published 2003).
At least one structure is not confirmed: it was looked up by name or label, or the drawing left a doubt.

Columns and labels:
[1] = tested on: hepatocellular cancer cells
[2] = patients treated

**Q.** With `CCc1ccc(CCOc2ccc(CC3SC(=O)NC3=O)cc2)nc1` (centres unmarked) [Pioglitazone, 5-[p-[2-(5-ethyl-2-pyridyl)thoxy]benzyl]-2,4-thiazolidinedione] as the compound, how does the “growth inhibition of hepatocellular cancer cells” value [1] read?
**A.** marked growth inhibition

**Q.** And the HDL levels [2]?
**A.** slight increase
